Experimental data taken from patent publication EP0006752A1, “Compositions for the treatment of chronic trypanosomiasis infections” (Merck & Co., Inc., priority 1978, dated 1980).
For at least one compound, name, drawing or mass did not settle the structure.

Tested on: T. brucei TREU 667/1
Experiment: Early (3 day old) T. brucei TREU 667/1 infection in mice, cure after i.p. treatment
Format: in vivo, Trypanosoma brucei
Details: early (3 day) infection; dose levels used 4 x 5 and 4 x 20 mg./kg.
From the text: The mice used were adult CFLP females approximately 25-30 g. and maintained on standard laboratory diet throughout the experiments. Two stabilates were used throughout the experiments, the main one was T. brucei TREU 667/1 originally obtained from Dr. A. R. Gray, Edinburgh, and the other T. brucei LUMP 1001 obtained from Professor […], London. These were cryogenically maintained as previously described in Jennings, […], Parasitol. 75, 143-153 (1977). Each mouse was inoculated intraperitoneally with 1 x 10^4 trypanosomes prepared from the stabilate in phosphate glucose saline pH 8.0. Chemotherapy commenced at various times post inoculation. Each mouse was weighed and the requisite dose of drug administered intraperitoneally in a volume of 0.1 ml./5g. body weight. Compounds I, II and III were used in crystalline powder forms. These were first ground finely in an agate mortar and then suspended in physiological saline for intraperitoneal injection. A drop of detergent (Tween 80) was added to the suspensions to facilitate wetting. Care was taken during dispensing that the suspensions were properly dispersed, and because of some slight unavoidable settlement in the syringe, the mice were always injected at random and usually not more than 3 mice were injected from the one syringe full of drug suspension. […]

Cn1c([N+](=O)[O-])cnc1COC(N)=O [Compound I, 1-methyl-5-nitroimidazol-2-ylmethylcarbamate]
trypanocidal action: completely ineffective
